The results in this text go back to PubChem BioAssay AID493014 (National Center for Advancing Translational Sciences (NCATS), 2011).

As a reminder, the AC50 is the concentration giving half of the maximal activity seen.

A short description of the test: qHTS Assay to Find Inhibitors of Chronic Active B-Cell Receptor Signaling. The conditions noted are these: ABC-DLBCL IkBa-CBG/CBR reporter, luminescence ratio (green luciferase fused to IkBa over red control in TMD8 lymphoma cells), 4 h. Summed up: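 Cell line TMD8 (human ABC DLBCL), stably expressing tet-inducible CBG68-IkBa fusion and CBR; IMDM/0.5% FBS; cpd up to 46 uM; dox induction, 4 h, 37C/5% CO2; dual luminescence; green/red ratio; MG132 control.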

The mark [1] stands for this setting: measured here: CBR red luminescence, cell number.
[2] abbreviates: measured here: IkBa-CBG green luminescence.

This is one part of the list. Shown are side measurements of this screen, not its main read-out; they come without a call. The list favours compounds with an active or inconclusive main result. Potencies come from curve fits of mixed quality, noted in brackets.

`CC1=CC(c2ccccc2)n2nc(NC(=O)CCCC(=O)O)nc2N1` (stereo not drawn): under setting [1], the concentration at half-maximal activity (AC50) is 0.1 µM [rising, full curve, poor fit].
In the case of `COCCCNC(=O)c1cc2c(=O)n3cc(C)ccc3nc2nc1NCC1CCCO1` (stereo not drawn), under setting [1], the AC50 is 0.103 µM [falling, full curve, poor fit].
The same measure, in the same setting: the same measure for `O=C(Cn1nc(C(=O)O)c2ccccc2c1=O)Nc1cccc(S(=O)(=O)N2CCOCC2)c1`: 14.6 µM [rising, partial curve, poor fit]; for `COc1ccccc1C1CCN(C(=S)Nc2ccc(Br)cc2)CC1`: 2.82 µM [rising, partial curve]; for `Cc1nc2ccc(NC(=O)c3cc([N+](=O)[O-])cc([N+](=O)[O-])c3Cl)cc2s1`: 29.1 µM [falling, single point].
Same read-out and setting: as for `CCOc1ccc2[nH]c3ncccc3c(=O)c2c1`, the figure is 3.55 µM [falling, partial curve, poor fit].
Consider `Cc1cccc(OCC(=O)Nc2cccc(O)c2)c1`, for which the half-maximal activity concentration (AC50) under setting [1] was 0.517 µM [falling, full curve, poor fit].
Consider `Cc1ccc(C(=O)CN(C(=O)c2ccc(Cl)cc2)N2C(=O)c3ccccc3C2=O)cc1`, for which the half-maximal activity concentration (AC50) under setting [1] is 14.1 µM [rising, single point].
On to `COc1ccc(COc2cc(-c3cccc(OC)c3)nc3ccc(N)cc23)cc1`, for which the concentration at half-maximal activity (AC50) is 2.91 µM [rising, single point] under setting [1] and 5.17 µM [falling, full curve] under setting [2].
With `COC(=O)c1cc(Br)c(=O)n(-c2ccc(C(C)=O)cc2)c1`, the concentration at half-maximal activity (AC50) under setting [1] is 6.31 µM [rising, partial curve, poor fit].
On to `COCCCNC(=O)Cc1c(C)c2c(cc(C)c3c(C(C)(C)C)coc32)oc1=O`, for which the concentration at half-maximal activity (AC50) reads like this: under setting [1], 35.5 µM [falling, single point]; under setting [2], 5.62 µM [falling, single point].
In the case of `O=C(NC1=NCCS1)c1cc(-c2ccccc2)nn1-c1ccccc1`, the AC50 under setting [1] was 0.501 µM [rising, full curve].
The same measure, in the same setting: as for `O=S(=O)(c1ccccc1)c1nc(-c2ccccc2F)oc1NCc1cccnc1`, the figure is 5.01 µM [rising, full curve, poor fit].
As for `NS(=O)(=O)c1ccc(NC(=O)c2cc(-c3cccs3)nc3ccccc23)cc1`, the concentration at half-maximal activity (AC50) by setting is: under setting [1], 1.16 µM [falling, partial curve]; under setting [2], 2.91 µM [rising, full curve].
Take `CC1=CC(C)(C)n2c(O)c(N=NC(N)=S)c3c(C)ccc1c32`: under setting [1], the AC50 was 29.1 µM [falling, partial curve, poor fit].
In the case of `CCOc1cc(C(=O)CCC(=O)OCC(=O)N2c3ccccc3NC(=O)C2(C)C)ccc1O`, under setting [1], the AC50 is 29.1 µM [falling, partial curve, poor fit].
The same measure, in the same setting: as for `COc1ccccc1NS(=O)(=O)c1ccc2c(c1)N(C(C)=O)CC(C)S2` (stereo not drawn), the figure is 14.1 µM [falling, partial curve, poor fit]; as for `COc1ccc(NC2CCCN(C(=O)CCc3scnc3C)C2)cc1` (stereo not drawn), 3.98 µM [rising, single point].
Still for that read-out and setting: the same measure for `Cc1cc(NCC2CCCCC2)nc2ccccc12`: 7.94 µM [rising, partial curve, poor fit].
For `CCOC(=O)c1nn(-c2ccccc2C)c2nc(-c3ccc(Cl)cc3)c(C#N)c(=O)n12`, the AC50 under setting [1] was 18.4 µM [falling, single point] and the AC50 under setting [2] was 23.1 µM [rising, partial curve, poor fit].
On to `C=CCOC(=O)C1=C(C)Nc2ncnn2C1c1cc(Br)ccc1F` (stereo not drawn), for which the AC50 under setting [1] is 5.62 µM [falling, full curve, poor fit].
Consider `COc1cccc(C(=O)CSc2nccn2C)c1`, for which the concentration at half-maximal activity (AC50) under setting [1] is 25.1 µM [falling, single point].
In the case of `Cc1ccnc(NC(=O)CNC(=O)Cc2cccc3ccccc23)c1`, the concentration at half-maximal activity (AC50) under setting [1] was 10.3 µM [falling, partial curve, poor fit].
On the same count and under the same terms, the same measure for `Cc1ccc(/C=C(\C#N)C(=O)Nc2cccc3ncccc23)o1`: 25.9 µM [falling, single point].
On the same count and under the same terms, as for `CC(C)NS(=O)(=O)c1ccc(CCC(=O)N2CCOCC2)cc1`, the figure is 0.00517 µM [falling, full curve, poor fit].
Turning to `Cc1ccc(S(=O)(=O)N2CCCCC2CCNC(=O)C(=O)NCc2ccccc2)cc1` (stereo not drawn), the AC50 under setting [1] was 20.6 µM [rising, partial curve] and the half-maximal activity concentration (AC50) under setting [2] is 18.4 µM [falling, partial curve].
For `CC12CCC(=O)N1C(C(=O)Nc1ccc(SC(F)F)cc1)CS2` (stereo not drawn), the AC50 under setting [1] is 29.1 µM [rising, partial curve, poor fit].
As to `Cc1cc(Cl)ccc1OCCCC(=O)NO`, the concentration at half-maximal activity (AC50) under setting [2] was 23.1 µM [falling, partial curve, poor fit].
Regarding `O=C(NCCN1CCOCC1)c1ccc(Cl)cc1`, under setting [1], the concentration at half-maximal activity (AC50) was 31.6 µM [rising, single point].
On the same count and under the same terms, the same measure for `CC(C)Oc1cc(NC(=O)CS(=O)CC(=O)N(C)C)c(Cl)cc1Cl` (stereo not drawn): 0.501 µM [falling, full curve, poor fit]; for `CCN1CCCC1CNC(=O)c1ccc2c(c1)N(Cc1cccc(Cl)c1)C(=O)c1ccccc1S2(=O)=O` (stereo not drawn): 3.98 µM [falling, full curve, poor fit].
Turning to `Cc1ccccc1NC(=O)c1sc(NC(=O)COc2ccccc2)c(C#N)c1C`, the concentration at half-maximal activity (AC50) under setting [1] was 8.2 µM [rising, partial curve].
On the same count and under the same terms, the same measure for `COc1ccc2cc3cc(C(=O)NCc4cccs4)oc3nc2c1`: 0.0058 µM [rising, full curve, poor fit].
Turning to `COC(=O)c1cccc(NC(=O)CN2CCN(c3ccc(OC)cc3)CC2)c1`, the half-maximal activity concentration (AC50) under setting [1] was 25.1 µM [rising, single point].
On the same count and under the same terms, as for `CCC(=O)N(Cc1cc2cc(OC)ccc2[nH]c1=O)c1cc(C)ccc1C`, the figure is 3.98 µM [falling, single point]; as for `CCCn1c(-c2ccc[nH]c2=O)nc2cc(C)c(C)cc21`, 20 µM [falling, single point].
Take `CCCCn1c(N)c(N(CCOC)C(=O)COC(=O)COc2cccc(C(C)=O)c2)c(=O)[nH]c1=O`: under setting [1], the concentration at half-maximal activity (AC50) is 18.4 µM [rising, single point].
Take `CCCC(=O)Nc1cccc(NC(=O)CN2CCN(c3ccccc3OC)CC2)c1`: the AC50 under setting [1] was 14.1 µM [rising, partial curve, poor fit].
For `Nc1cccc(-c2nc3ccc(C(=O)c4ccccc4)cc3[nH]2)c1`, the half-maximal activity concentration (AC50) is 0.631 µM [falling, full curve, poor fit] under setting [1] and 12.6 µM [falling, partial curve, poor fit] under setting [2].
For the molecule `O=C(N/N=C/c1ccc2nccnc2c1)c1ccncc1`, the AC50 under setting [1] was 12.6 µM [falling, partial curve, poor fit].
The same measure, in the same setting: as for `O=C1CSC(=Nc2ccc(Cl)cc2)N1Cc1cccnc1`, the figure is 6.31 µM [rising, single point].
Still for that read-out and setting: as for `COc1cc(O)c(CCC(=O)c2ccc(OC)c(OC)c2)c(OC)c1`, the figure is 35.5 µM [falling, single point]; as for `Cc1ccc(S(=O)(=O)NCCCN2CCOCC2)c(C)c1`, 5.62 µM [falling, single point]; as for `COc1cccc(C(=O)Nc2sc3c(c2C(=O)O)CCCC3)c1`, 0.0316 µM [falling, full curve].
In the case of `COc1ccccc1NC(=S)NCCSc1ccc(Cl)cc1`, the AC50 under setting [1] is 14.6 µM [falling, partial curve].
Regarding `COc1ccc2cc(C#N)c(N3CCN(C(=O)c4ccccc4C)CC3)nc2c1`, the AC50 under setting [1] is 35.5 µM [falling, single point].
Still for that read-out and setting: as for `CC1(C)Cc2c(sc(NC(=O)c3ccccc3Cl)c2C(=O)O)CO1`, the figure is 7.08 µM [falling, partial curve]; as for `CCC(=O)Nc1nnc(-c2ccco2)o1`, 29.1 µM [falling, single point].
Same read-out and setting: as for `CCOc1ccc2oc(C(=O)N(CC)CC(=O)Nc3ccc(NC(C)=O)cc3)c(C)c2c1`, the figure is 32.6 µM [falling, single point].
For the molecule `N#Cc1cnc2nc(SCc3ccccc3)nn2c1`, the half-maximal activity concentration (AC50) under setting [1] is 12.6 µM [falling, single point].
With `CCc1ccccc1NC(=S)N(CCCN1CCOCC1)Cc1ccccn1`, the AC50 under setting [1] was 32.6 µM [falling, partial curve, poor fit].
With `O=C(Nc1cccc(NC(=O)c2cccs2)c1)c1ccc([N+](=O)[O-])o1`, the half-maximal activity concentration (AC50) under setting [1] was 11.2 µM [falling, partial curve].
Turning to `Cc1csc2nc(O)c(C(=O)NCCCc3ccccc3)c(=O)n12`, the half-maximal activity concentration (AC50) under setting [1] was 3.26 µM [falling, full curve].
Same read-out and setting: the same measure for `COc1ccc2nc(NC(=O)C3=NN(c4ccccc4)C(=O)CC3)sc2c1`: 29.1 µM [falling, single point]; for `COc1cccc(OC)c1C(=O)Nc1cc2c(cc1N1CCOCC1)n(C)c(=O)n2C`: 11.2 µM [rising, partial curve, poor fit]; for `N/C(=N\NC(=O)Nc1ccccc1)c1ccccn1`: 5.01 µM [falling, partial curve].
Take `c1ccc(-c2nnc(-c3ccccc3)o2)cc1`: the half-maximal activity concentration (AC50) under setting [1] is 14.1 µM [falling, partial curve].
On the same count and under the same terms, as for `CC(C)Cn1c(SC(C)C(=O)Nc2ccc3c(c2)OCCO3)nc2ccccc2c1=O` (stereo not drawn), the figure is 10 µM [falling, partial curve].
Still for that read-out and setting: the same measure for `CC(C)CC(=O)Nc1ccc(C(=O)NNC(=O)C(c2ccccc2)c2ccccc2)cc1`: 5.8 µM [rising, partial curve, poor fit].
On the same count and under the same terms, as for `CCN(CC)S(=O)(=O)c1cc(F)ccc1OC`, the figure is 29.1 µM [rising, single point]; as for `COC(=O)c1sc(N)c(C(=O)OC)c1Cn1ncc(Cl)c(Cl)c1=O`, 35.5 µM [falling, single point]; as for `CCOC(=O)C1CCCN(C(=O)c2sc3nc(-c4ccc(OC)cc4)cn3c2C)C1` (stereo not drawn), 10 µM [falling, partial curve].
